PubChem BioAssay AID1053208 – Peter MacCallum Cancer Centre | 2014

Aim: 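Find knock-downs that sensitise mouse osteosarcoma cells to doxorubicin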 (primary screen)
System: mouse osteosarcoma cells, early-passage culture from an engineered mouse model of fibroblastic bone tumour
Knock-down reagent: siRNA pool against mouse genes, 40 nM
Duration: about 120 h (48 h before drug, then 72 h with drug)
Conditions: doxorubicin 100 nM for 72 h, roughly 30-40% inhibitory dose
Read-out: 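Luminescent ATP signal taken as viability with or without 100 nM doxorubicin for 72 h; mean of two wells set against non-targeting siRNA and turned into robust z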
Scale: viability z-score with doxorubicin and doxorubicin viability vs non-targeting: higher = more viable cells under doxorubicin; viability z-score without drug: higher = more viable cells with knock-down alone; z-score of drug to no-drug ratio: higher = less drug sensitisation by knock-down
Call rule: 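a pool counts as active when its viability z-score with doxorubicin is -2 or below and its z-score without drug lies between -2 and 2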
Shown is an unselected part of about 17,000 deposited reagents. 788 of all reagents (4.7%) were called active. 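Calls rest on z-score classes alone; an extra cut-off of viability at most 70% of control was not applied to them.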 Unmarked entries are inactive. Reagent sequences are not shown.

no.	gene	combined z-score class	viability z-score with doxorubicin	viability z-score without drug	z-score of drug to no-drug ratio	doxorubicin viability vs non-targeting
1	Sardh	no change with or without drug	1.35	1.52	0.45	1.06
2	Med31	high cell count with doxorubicin only	2.02	-1.85	3.93	1.12
3	Prtg	low cell count with and without drug	-3.15	-4.55	-0.11	0.66
4	Or52h9	no change with or without drug	-1.12	-0.51	-0.79	0.84
5	Dleu7	no change with or without drug	-0.67	-0.51	-0.22	0.88
6	Zmat3	no change with or without drug	-1.01	-0.67	-0.56	0.85
7	Myh1	no change with or without drug	1.46	-0.34	1.91	1.07
8	Vmn1r44	no change with or without drug	1.46	1.52	0.56	1.07
9	Nkapl	no change with or without drug	-0.22	0.51	-0.45	0.92
10	Cd200r2	no change with or without drug	0.45	0.51	0.22	0.98
11	DSG1A	no change with or without drug	0.67	1.85	-0.45	1
12	Tbc1d8b	no change with or without drug	0.34	0.51	0.11	0.97
13	Bcl10	no change with or without drug	0.56	-0.34	0.9	0.99
14	Or2ak5	low cell count with doxorubicin only (active)	-2.25	-0.84	-1.8	0.74
15	AI848100	no change with or without drug	0.22	1.52	-0.67	0.96
16	Il17re	no change with or without drug	0	0.84	-0.45	0.94
17	S1pr4	no change with or without drug	-0.67	0.84	-1.12	0.88
18	Arsk	low cell count without drug only	-0.22	-4.22	3.71	0.92
19	Gria4	no change with or without drug	-0.67	-1.85	0.79	0.88
20	Or4f58	low cell count with doxorubicin only (active)	-2.14	-1.35	-1.35	0.75
21	Abcb7	no change with or without drug	0.22	0.67	-0.11	0.96
22	Mup3	no change with or without drug	0	-0.51	0.45	0.94
23	Or51i1	no change with or without drug	0.11	-1.35	1.24	0.95
24	Rdm1	no change with or without drug	-1.12	0.17	-1.12	0.84
25	St7	no change with or without drug	0.45	-1.52	1.8	0.98
26	Eprs1	no change with or without drug	-0.22	-1.85	1.35	0.92
27	Zbtb38	no change with or without drug	0.34	0.34	0.22	0.97
28	Cdk15	no change with or without drug	0.9	-0.84	1.69	1.02
29	Ptk6	no change with or without drug	0.22	0.17	0.22	0.96
30	Mmd	no change with or without drug	-0.22	-1.85	1.35	0.92
31	Rnf150	low cell count with doxorubicin only (active)	-2.92	-0.84	-2.47	0.68
32	Cercam	no change with or without drug	-0.11	-0.51	0.34	0.93
33	Tbxas1	no change with or without drug	0.45	1.35	-0.34	0.98
34	A430107D22RIK	no change with or without drug	-0.34	0.84	-0.79	0.91
35	Rab39b	no change with or without drug	-0.22	-0.84	0.45	0.92
36	Mis18bp1	no change with or without drug	-1.57	-0.17	-1.46	0.8
37	Apba2	no change with or without drug	0.56	-1.18	1.57	0.99
38	Nlrx1	no change with or without drug	-0.67	0	-0.56	0.88
39	Slc23a2	no change with or without drug	-1.57	-1.18	-0.79	0.8
40	Ankk1	no change with or without drug	0.56	0.34	0.45	0.99
41	Col27a1	no change with or without drug	-0.22	1.18	-0.9	0.92
42	Naa50	no change with or without drug	-1.91	-1.52	-0.9	0.77
43	Tm7sf2	no change with or without drug	0	0.51	-0.22	0.94
44	C530043A13Rik	no change with or without drug	1.12	0.17	1.12	1.04
45	Ca6	no change with or without drug	-1.35	-0.17	-1.24	0.82
46	Tert	no change with or without drug	0.34	-0.51	0.79	0.97
47	Tomm22	low cell count without drug only	-1.57	-3.2	0.79	0.8
48	Or1j14	no change with or without drug	-0.79	-0.84	-0.11	0.87
49	Il6ra	no change with or without drug	-0.9	1.52	-1.69	0.86
50	Ank2	no change with or without drug	0.45	-0.84	1.24	0.98
